In PubChem BioAssay (NCATS):
Where “and” joins values, the source holds several entries; their conditions need not be identical. Equal entries are not always repeated. Some of the results follow. Shown are side measurements of this screen, not its main read-out; they come without a call. Most of these compounds were active or inconclusive in the main read-out, so they are no random draw. For some of these results: The note in brackets gives the kind of curve behind each potency; many fits are weak.

Assay: qHTS assay for small molecule antagonists of androgen receptor signaling (AID 588516)
Settings: AR-UAS-bla HEK293, beta-lactamase ratio, antagonist mode, 16 h; measured here: W530 green channel, cytotoxicity/artifact
In short: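 Antagonist mode: inhibition of R1881-stimulated (10 nM final) bla reporter in GeneBLAzer AR HEK 293 cells, 16 h at 37C, compounds titrated. IC50 and efficacy from Hill-equation fits of 405/460–530 nm FRET ratios.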

Compound | AC50
C=C1C(CCl)(CCl)C2(Cl)C(Cl)C(Cl)C1(Cl)C2(Cl)Cl (centres undefined) | 39.8 µM [rising, partial curve, poor fit]
CCC(C)Nc1ccc(NC(C)CC)cc1 (centres undefined) | 12.6 µM [rising, full curve] and 35.5 µM [rising, partial curve, poor fit]
C[C@@H]1CC2(OC(O)[C@]3(C)O[C@H]23)O[C@H]2C[C@@]3(C)[C@@H]4CC[C@H]5C(C)(C)C(O[C@@H]6OC[C@@H](O)[C@H](O)[C@H]6O)CC[C@@]56C[C@@]46CC[C@]3(C)[C@@H]12 (some centres undefined) | 3.98 µM [rising, full curve]
CCCCCCCCCCCC[N+](C)(C)[O-] | 44.7 µM [rising, single point]
C[C@@H]1CC2(OC[C@]3(C)O[C@H]23)O[C@H]2C[C@@]3(C)[C@@H]4CC[C@H]5C(C)(C)C(O[C@@H]6OC[C@@H](O)[C@H](O)[C@H]6O)CC[C@@]56C[C@@]46CC[C@]3(C)[C@@H]12 (some centres undefined) | 3.98 µM [rising, full curve, poor fit]
O=C(O)CN(CCCN(CC(=O)O)CC(=O)O)CC(=O)O | 28.2 µM [rising, single point]
Cc1cc(=O)oc2cc(O)cc(O)c12 | 20 µM [rising, full curve, poor fit]
CO/N=C1\C[C@]2(C[C@@H]3C[C@@H](C/C=C(\C)C[C@@H](C)/C=C/C=C4\CO[C@@H]5[C@H](O)C(C)=C[C@@H](C(=O)O3)[C@]45O)O2)O[C@H](/C(C)=C/C(C)C)[C@H]1C | 25.1 µM [rising, single point]

Assay: qHTS assay for small molecule antagonists of glucocorticoid receptor signaling (AID 588533)
Settings: HeLa MMTV-bla, GRE beta-lactamase ratio, antagonist mode, 18 h; measured here: W530 channel AC50

Compound | AC50
Cc1cc(Cc2cc(C)cc(C(C)(C)C)c2O)c(O)c(C(C)(C)C)c1 | 50.1 µM [falling, partial curve, poor fit]
Oc1c(Cl)ccc(Cl)c1Cl | 79.4 µM [falling, single point]
C=C1C(CCl)(CCl)C2(Cl)C(Cl)C(Cl)C1(Cl)C2(Cl)Cl (centres undefined) | 35.5 µM [falling, partial curve]
Cc1ccc(S(=O)(=O)C(I)I)cc1 | 39.8 µM [falling, partial curve, poor fit]
CCC(C)Nc1ccc(NC(C)CC)cc1 (centres undefined) | 25.1 µM [falling, full curve, poor fit]
S=C([S-])NCCNC(=S)[S-].S=C([S-])NCCNC(=S)[S-].[Mn+2].[Zn+2] | 35.5 µM [rising, partial curve, poor fit]
O=C(OCC(COC(=O)c1ccccc1)(COC(=O)c1ccccc1)COC(=O)c1ccccc1)c1ccccc1 | 39.8 µM [falling, partial curve]
O=[N+]([O-])c1ccc(O)cc1C(F)(F)F | 0.0794 µM [falling, full curve, poor fit]
Nc1ccc(O)cc1 | 31.6 µM [falling, single point]
COC(=O)c1ccc(C=O)cc1 | 7.94 µM [falling, full curve, poor fit]
CC(=O)S[C@@H]1CC2=CC(=O)CC[C@]2(C)[C@H]2CC[C@@]3(C)[C@@H](CC[C@@]34CCC(=O)O4)[C@H]12 | 11.2 µM [rising, full curve, poor fit]
O=C1c2c(O)ccc([N+](=O)[O-])c2C(=O)c2c([N+](=O)[O-])ccc(O)c21 | 35.5 µM [falling, partial curve]
Nc1ccc2c(c1)C(=O)c1ccccc1C2=O | 44.7 µM [falling, partial curve, poor fit]
C=CC(=O)OCCOCC(CC)(COCCOC(=O)C=C)COCCOC(=O)C=C | 35.5 µM [rising, single point]
Cc1cc(O)c(C(C)(C)C)cc1Sc1cc(C(C)(C)C)c(O)cc1C | 39.8 µM [falling, partial curve] and 50.1 µM [falling, single point]
O=C=Nc1ccc(Cc2ccc(N=C=O)cc2)cc1 | 50.1 µM [falling, partial curve, poor fit]
CO/N=C1\C[C@]2(C[C@@H]3C[C@@H](C/C=C(\C)C[C@@H](C)/C=C/C=C4\CO[C@@H]5[C@H](O)C(C)=C[C@@H](C(=O)O3)[C@]45O)O2)O[C@H](/C(C)=C/C(C)C)[C@H]1C | 10 µM [falling, full curve]

Assay: qHTS assay for small molecule antagonists of peroxisome proliferator-activated receptor delta signaling (AID 588535);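 further: cells co-treated with a PPAR-delta agonist as stimulator during compound exposure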
Settings: HEK293T PPARd-UAS-bla, beta-lactamase FRET ratio, 18 h; 460 nm channel
In short: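 Beta-lactamase reporter read-out (405 nm excitation, 460/530 nm emission) after CCF4 loading for 2 hrs at RT. HEK293T PPAR-delta-UAS-bla cells, 2% charcoal/dextran FBS, compounds for 18 hrs at 37 C. Hill fit gave IC50 and efficacy.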

Compound | max response
Cc1cc(Cc2cc(C)cc(C(C)(C)C)c2O)c(O)c(C(C)(C)C)c1 | 24%
CCC(=O)C1C(=O)CC(C(=O)O)CC1=O (centres undefined) | -55.4%
C[C@@H]1CC2(OC3C[C@@]4(C)C5=CC[C@H]6C(C)(C)C(O[C@@H]7OC[C@@H](O)[C@H](O)[C@H]7O)CC[C@@]67C[C@@]57CC[C@]4(C)C31)OC(O)C1(C)OC21 (some centres undefined) | 69.2%
CC(=O)Nc1ccc(N)cc1 | -8.24%
Oc1c(Cl)ccc(Cl)c1Cl | 43.9%
C=C1C(CCl)(CCl)C2(Cl)C(Cl)C(Cl)C1(Cl)C2(Cl)Cl (centres undefined) | -123%
Cc1ccc(S(=O)(=O)C(I)I)cc1 | -88.2%
CCC(C)Nc1ccc(NC(C)CC)cc1 (centres undefined) | -98.6% and -79.8%
C[C@@H]1CC2(OC(O)[C@]3(C)O[C@H]23)O[C@H]2C[C@@]3(C)[C@@H]4CC[C@H]5C(C)(C)C(O[C@@H]6OC[C@@H](O)[C@H](O)[C@H]6O)CC[C@@]56C[C@@]46CC[C@]3(C)[C@@H]12 (some centres undefined) | 149%
O=C(OCC(COC(=O)c1ccccc1)(COC(=O)c1ccccc1)COC(=O)c1ccccc1)c1ccccc1 | -75.3%
CC(=O)Nc1ccc(C(=O)CCl)cc1 | -74.2% and -77.2%
C[C@]12CCC(=O)C=C1CC[C@@H]1[C@@H]2[C@@H](O)C[C@]2(C=O)[C@@H](C(=O)CO)CC[C@@H]12 | 83.5%
CC(=O)S[C@@H]1CC2=CC(=O)CC[C@]2(C)[C@H]2CC[C@@]3(C)[C@@H](CC[C@@]34CCC(=O)O4)[C@H]12 | -135%
C=CC(=O)OCCCCCCOC(=O)C=C | -111%
O=C1c2c(O)ccc([N+](=O)[O-])c2C(=O)c2c([N+](=O)[O-])ccc(O)c21 | -97.5%
C[C@@H]1CC2(OC[C@]3(C)O[C@H]23)O[C@H]2C[C@@]3(C)[C@@H]4CC[C@H]5C(C)(C)C(O[C@@H]6OC[C@@H](O)[C@H](O)[C@H]6O)CC[C@@]56C[C@@]46CC[C@]3(C)[C@@H]12 (some centres undefined) | 317%
C[Si](C)(C)Cl | 198%
Nc1ccc2c(c1)C(=O)c1ccccc1C2=O | 45.3%
C=CC(=O)OCCOCC(CC)(COCCOC(=O)C=C)COCCOC(=O)C=C | -93.4%
Cc1cc(=O)oc2cc(O)cc(O)c12 | 275%
OCCO | 37%
COC(=O)c1ccc(CNS(C)(=O)=O)cc1S(=O)(=O)NC(=O)Nc1nc(OC)cc(OC)n1 | -59.5%
Cc1cc(O)c(C(C)(C)C)cc1Sc1cc(C(C)(C)C)c(O)cc1C | -61% and -74.6%
CO/N=C1\C[C@]2(C[C@@H]3C[C@@H](C/C=C(\C)C[C@@H](C)/C=C/C=C4\CO[C@@H]5[C@H](O)C(C)=C[C@@H](C(=O)O3)[C@]45O)O2)O[C@H](/C(C)=C/C(C)C)[C@H]1C | -51.1%

Single entries from the list.
Entry of `O=C(OCC(COC(=O)c1ccccc1)(COC(=O)c1ccccc1)COC(=O)c1ccccc1)c1ccccc1` under max response: -75.3%
Entry of `Oc1c(Cl)ccc(Cl)c1Cl` under max response: 43.9%

An excerpt from above in order of heavy-atom count, descending.
Compound | max response
C[C@@H]1CC2(OC[C@]3(C)O[C@H]23)O[C@H]2C[C@@]3(C)[C@@H]4CC[C@H]5C(C)(C)C(O[C@@H]6OC[C@@H](O)[C@H](O)[C@H]6O)CC[C@@]56C[C@@]46CC[C@]3(C)[C@@H]12 (some centres undefined) | 317%
Cc1cc(Cc2cc(C)cc(C(C)(C)C)c2O)c(O)c(C(C)(C)C)c1 | 24%
OCCO | 37%
